Results: PubChem BioAssay AID2073 (Sanford-Burnham Center for Chemical Genomics, 2009)
In all, about 290,000 compounds went through this assay and about 570 (0.2%) were called active. The inconclusive results got no clear call from the source; some entries with a clear call stand among them for comparison. No stated cut-off is given here; in the data, active means inhibition mostly above about 51% (no sharp cut-off); inconclusive means no clear call, values can overlap the other calls; inactive means mostly below about 53%.

Protein sequences, listed by entry. Tags and fused reporters are not part of them.
UniProt Q00975, whole entry, looked up: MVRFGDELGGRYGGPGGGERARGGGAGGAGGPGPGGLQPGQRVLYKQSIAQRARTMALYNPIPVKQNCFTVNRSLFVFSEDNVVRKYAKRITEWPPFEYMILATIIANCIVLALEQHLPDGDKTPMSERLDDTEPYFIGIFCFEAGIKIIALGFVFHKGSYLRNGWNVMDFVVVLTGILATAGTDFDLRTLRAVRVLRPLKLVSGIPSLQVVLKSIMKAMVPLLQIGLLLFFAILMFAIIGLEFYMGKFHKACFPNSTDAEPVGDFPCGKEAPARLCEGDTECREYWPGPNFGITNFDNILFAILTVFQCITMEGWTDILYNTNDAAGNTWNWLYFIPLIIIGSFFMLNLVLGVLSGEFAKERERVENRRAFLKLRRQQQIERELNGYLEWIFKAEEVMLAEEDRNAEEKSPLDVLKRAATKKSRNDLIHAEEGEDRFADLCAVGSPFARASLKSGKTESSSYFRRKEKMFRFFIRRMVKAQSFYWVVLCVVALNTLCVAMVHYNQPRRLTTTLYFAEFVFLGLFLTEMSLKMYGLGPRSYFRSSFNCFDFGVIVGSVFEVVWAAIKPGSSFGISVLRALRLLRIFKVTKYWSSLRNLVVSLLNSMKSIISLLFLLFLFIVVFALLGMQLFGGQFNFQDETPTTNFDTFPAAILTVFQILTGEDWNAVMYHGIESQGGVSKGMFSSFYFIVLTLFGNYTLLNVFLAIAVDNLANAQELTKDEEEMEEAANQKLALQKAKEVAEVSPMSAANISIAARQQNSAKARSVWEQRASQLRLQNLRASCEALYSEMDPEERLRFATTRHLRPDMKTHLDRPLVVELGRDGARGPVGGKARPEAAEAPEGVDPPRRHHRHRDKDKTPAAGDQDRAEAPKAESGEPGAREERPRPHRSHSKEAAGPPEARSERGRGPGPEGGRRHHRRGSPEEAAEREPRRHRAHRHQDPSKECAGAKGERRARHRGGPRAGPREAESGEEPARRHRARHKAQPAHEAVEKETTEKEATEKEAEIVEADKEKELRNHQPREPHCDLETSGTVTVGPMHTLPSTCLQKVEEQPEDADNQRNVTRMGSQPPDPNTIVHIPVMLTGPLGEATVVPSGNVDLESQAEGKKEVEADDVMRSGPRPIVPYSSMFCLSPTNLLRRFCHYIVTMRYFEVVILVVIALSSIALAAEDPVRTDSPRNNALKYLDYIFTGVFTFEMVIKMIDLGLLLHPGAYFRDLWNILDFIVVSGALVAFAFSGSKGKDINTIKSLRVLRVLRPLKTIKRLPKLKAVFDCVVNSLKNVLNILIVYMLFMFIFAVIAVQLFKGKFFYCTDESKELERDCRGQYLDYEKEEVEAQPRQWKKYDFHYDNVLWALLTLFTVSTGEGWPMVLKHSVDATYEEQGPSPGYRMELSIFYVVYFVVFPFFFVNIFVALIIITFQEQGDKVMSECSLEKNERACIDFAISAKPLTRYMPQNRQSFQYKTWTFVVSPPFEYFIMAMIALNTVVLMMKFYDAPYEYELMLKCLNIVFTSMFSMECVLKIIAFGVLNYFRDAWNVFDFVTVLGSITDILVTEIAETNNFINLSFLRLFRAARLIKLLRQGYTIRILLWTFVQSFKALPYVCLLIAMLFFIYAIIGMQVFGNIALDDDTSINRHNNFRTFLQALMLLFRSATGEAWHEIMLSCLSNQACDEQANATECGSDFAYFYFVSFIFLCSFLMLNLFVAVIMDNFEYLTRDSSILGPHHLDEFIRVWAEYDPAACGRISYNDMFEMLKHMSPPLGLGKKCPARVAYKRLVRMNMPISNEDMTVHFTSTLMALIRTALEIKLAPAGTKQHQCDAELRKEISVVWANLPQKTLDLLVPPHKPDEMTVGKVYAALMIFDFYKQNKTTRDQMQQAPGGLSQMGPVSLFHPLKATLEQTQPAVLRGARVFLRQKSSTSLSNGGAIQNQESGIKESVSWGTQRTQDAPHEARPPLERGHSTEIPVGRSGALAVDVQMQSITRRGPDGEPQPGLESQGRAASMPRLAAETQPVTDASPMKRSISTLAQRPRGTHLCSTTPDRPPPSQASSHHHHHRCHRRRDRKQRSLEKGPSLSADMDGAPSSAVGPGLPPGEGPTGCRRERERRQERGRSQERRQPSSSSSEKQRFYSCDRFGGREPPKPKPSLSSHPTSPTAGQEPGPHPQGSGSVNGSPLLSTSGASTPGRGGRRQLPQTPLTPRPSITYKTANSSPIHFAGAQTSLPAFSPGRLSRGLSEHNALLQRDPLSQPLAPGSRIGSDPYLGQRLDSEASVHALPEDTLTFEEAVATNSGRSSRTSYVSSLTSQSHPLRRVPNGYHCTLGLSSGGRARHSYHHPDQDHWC

These compounds were tested against Voltage-dependent N-type calcium channel subunit alpha-1B (Homo sapiens) (UniProt Q00975) (assay: disruptors of CaV2.2 binding to Mint1 – biochemical, HTRF (AID 2073)). Conditions: HTRF protein-protein interaction, Mint1-CaV2.2; at 20 µM; stronger effect = higher value.

Compound | inhibition
CN(CCOC(=O)c1cccc(Br)c1)C(C)(C)C | inconclusive: 72.4%
CCC(C)NC(=O)C1CCC(CNS(=O)(=O)c2ccccc2)CC1 (stereo not drawn) | inconclusive: 78.2%
Oc1ccc(N=Nc2c(O)ccc3ccccc23)cc1 | inactive: -2.8%
O=C(OCc1nnc(-c2ccc(Cl)cc2)o1)c1ccncc1 | inactive: 7.7%
CCCCC(=O)Nc1ccc(C(=O)Nc2ccc(S(=O)(=O)Nc3ccc(C)cc3)cc2)cc1 | inconclusive: 74%
CCOc1cc(NC(=O)c2ccccn2)c(OCC)cc1NC(=O)c1ccccc1 | inconclusive: 63.1%
Cc1nc(C)c(C(=O)OCC(=O)N2CCN(c3ccccc3)CC2)s1 | inactive: -4.9%
O=C(Nc1ccc(OC(=O)c2ccccc2)c(-c2nc3ccccc3s2)c1)c1ccccc1 | inconclusive: 51.3%
CC[C@@H](C)[C@@H](C(=O)N1CCN(C(=O)OC(C)(C)C)CC1)n1cc(CCCN=C(NC(=O)OC(C)(C)C)NC(=O)OC(C)(C)C)nn1 | inconclusive: 54.2%
CC(=O)Nc1nc2c(s1)CCc1ccccc1-2 | inactive: -3.5%
O=C(CSc1ccc2c(c1)OCCO2)NC(=O)NC1CCCC1 | inconclusive: 66.8%
CC1(C2CC2)NC(=O)N(CC(=O)Nc2ccccc2-c2ccccc2)C1=O (stereo not drawn) | inconclusive: 52.1%
O=C1CC(c2ccco2)Cc2nc(Nc3nc(-c4ccccc4)c4ccccc4n3)ncc21 (stereo not drawn) | active: 52.4%
CC1(C)CC(=O)C2=C(C1)N(c1cccc(Cl)c1)C(=O)NC2(C(F)(F)F)C(F)(F)F | inconclusive: 52.7%
COc1cccc2cc(/C(C)=N/NC(=O)c3ccco3)oc12 | inconclusive: 75.7%
CC(=O)n1nc(-c2cccnc2)nc1N | inconclusive: 63.9%
CC(C)Oc1cccc(C(=O)C2CCCN(C(=O)c3ccsc3)C2)c1 (stereo not drawn) | inactive: -8.4%
CCOc1cc(/C=N/NC(=O)c2ccc(CSc3nncn3C)cc2)ccc1OCC(=O)N1CCOCC1 | inconclusive: 62.1%
COc1cc2c(cc1NC(=S)NC(=O)/C=C/c1ccco1)oc1ccccc12 | active: 53.2%
Cc1cccc(NC(=O)c2ccc(NCCc3ccccc3)c([N+](=O)[O-])c2)c1 | inconclusive: 54.3%
COc1ccccc1NC(=S)NC(=O)/C=C/c1cccs1 | inconclusive: 52.2%
COc1ccc(Cc2nnc(Cl)c3ccccc23)cc1OC | inconclusive: 55.4%

Among those listed so far, these have a tert-butyl group.
Compound | inhibition
CN(CCOC(=O)c1cccc(Br)c1)C(C)(C)C | inconclusive: 72.4%
CC[C@@H](C)[C@@H](C(=O)N1CCN(C(=O)OC(C)(C)C)CC1)n1cc(CCCN=C(NC(=O)OC(C)(C)C)NC(=O)OC(C)(C)C)nn1 | inconclusive: 54.2%

Following part

Compound | inhibition
CCOc1ccc(NC(=O)CCC(=O)Nc2cc(OC)c(NC(=O)c3ccco3)cc2OC)cc1 | inconclusive: 54%
CCOC(=O)Cn1c(=O)c2c(nc3n2CCN3c2ccc(C)cc2)n(C)c1=O | inconclusive: 52.6%
COC(c1ccccc1)c1nnc(CCC(=O)N2CCN(CCOc3ccccc3)CC2)o1 (stereo not drawn) | inconclusive: 99.9%
CCOc1ccccc1N1CSC2=C(C#N)C(c3c(OC)ccc4ccccc34)CC(=O)N2C1 (stereo not drawn) | inactive: 72.9%
CCOc1ccc(Nc2nc3ccccc3n3cnnc23)cc1 | inconclusive: 80.2%
C/C(=N\O)C1(C)N(O)C(C)(C)C(c2ccc(Br)cc2)=[N+]1[O-] (stereo not drawn) | inconclusive: 62.3%
Cc1c(O)ccc2c(CN3CCN(CCO)CC3)cc(=O)oc12 | inconclusive: 50.5%
O=C(COC(=O)c1cc(-c2ccco2)nc2ccccc12)NCc1ccccc1 | inactive: 25.4%
Cc1ccc(C(=O)COC(=O)c2cc(Cl)nc3ccccc23)cc1C | inconclusive: 80.6%
Cc1ccc(S(=O)(=O)N(C)CC(=O)OCC(=O)N2CCCC2=O)cc1 | inactive: -12.9%
Clc1cccc(-c2nnc3sc(-c4ccc5c(c4)OCO5)nn23)c1 | inconclusive: 57.2%
COc1ccc(Nc2nc(-c3ccccc3)nc3ccccc23)cc1S(=O)(=O)N1CCOCC1 | inconclusive: 53%
CCn1c(SCC(=O)NC2CCCC2)nnc1-c1ccncc1 | inconclusive: 75.3%
Nc1nc(CSC(=S)N2CCN(c3ccccc3)CC2)nc(Nc2ccc(F)cc2)n1 | inconclusive: 75.5%
CC(C)CCN1C(Nc2ccccc2)=NC[C@@H]1C | inactive: 2.7%
Nc1ccc2nc(-c3cccc(-c4nc5ccc(N)cc5[nH]4)c3)[nH]c2c1 | inactive: 46.7%
COc1cc(OC)cc(-c2nnc(Nc3nc4c(F)cccc4s3)o2)c1 | active: 56.7%
CCCNC(=O)c1ccc(SC)cc1OC | inconclusive: 70.3%
COc1cc(/C=C/c2ccc3cccc(O)c3n2)cc(OC)c1OC | inactive: 24.9%
CCN1CCN(C(=O)c2cc3ccc(OC)cc3[nH]2)CC1 | inconclusive: 60.5%
COc1cccc2c(=O)c(SC(F)(F)C(F)C(F)(F)F)c(C)[nH]c12 (stereo not drawn) | inconclusive: 60.7%
